This is one part of the list. The main result of the screen is listed elsewhere. These columns were measured beside it and carry no call. Compounds called inactive in the main read-out are mostly missing here. The note in brackets gives the kind of curve behind each potency; many fits are weak.

This passage reports AC50 results from PubChem BioAssay AID493014 (National Center for Advancing Translational Sciences (NCATS), 2011).

The nature of this test: qHTS Assay to Find Inhibitors of Chronic Active B-Cell Receptor Signaling. The settings on record: ABC-DLBCL IkBa-CBG/CBR reporter, luminescence ratio (green luciferase fused to IkBa over red control in TMD8 lymphoma cells), 4 h. The method, boiled down: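 TMD8 human ABC-DLBCL cells with doxycycline-inducible IκBα–green luciferase fusion and unfused red luciferase, in 0.5% FBS medium; compounds up to 46 uM, 4 h at 37C. Green/red luminescence ratio, filter-overlap corrected, fitted to concentration-response curves.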
Background: Quantitative high-throughput screening tests each substance at several concentrations.

[1] abbreviates: measured here: CBR red luminescence, cell number.

The term AC50 denotes the midpoint of the concentration-response curve, whichever way the signal moves. Regarding `C[C@H]1CN([C@@H](C)CO)C(=O)c2cccc(NC(=O)Nc3ccc(C(F)(F)F)cc3)c2O[C@@H]1CN(C)C(=O)Nc1ccc(F)cc1`, the AC50 under setting [1] was 29.1 µM [falling, single point].

On to `COc1ccc2cc(C=O)n(C)c2c1`, for which the AC50 under setting [1] is 3.26 µM [rising, full curve]. Same read-out and setting: for `Cc1cc2cc(CNC(=O)Nc3ccccc3)ccc2n1C` the value was 16.4 µM [rising, partial curve, poor fit]; for `CCOCCCNC(=S)N(CCN(C)C)Cc1cc2cc3c(cc2[nH]c1=O)OCCO3`, 4.47 µM [falling, partial curve, poor fit]. The same measure, in the same setting: for `COc1ccc(-c2cnnn2-c2ccc(NC(=O)c3ccc(S(=O)(=O)N4CCCCC4)cc3)cc2)cc1` the value was 18.4 µM [rising, partial curve, poor fit]. With `Cc1cc(C)cc(NC(=S)N(CCCN2CCN(C)CC2)Cc2cccs2)c1`, the AC50 under setting [1] is 20 µM [falling, partial curve, poor fit]. Still for that read-out and setting: for `Cc1ccc(/C=C2/SC(=S)N(CCC(=O)NCCCN3CCOCC3)C2=O)cc1` the value was 14.1 µM [falling, single point]; for `Cc1cccc(N(CC(=O)NC2CCCCC2)C(=O)Cn2nnc(-c3ccc(C)o3)n2)c1`, 5.01 µM [falling, partial curve, poor fit]; for `COc1cc(S(=O)(=O)N2CCN(Cc3ccc4c(c3)OCO4)CC2)c(C)cc1C`, 16.4 µM [falling, single point].

With `COc1cccc(N2C(=O)CC(Sc3nc(C)cc(C)n3)C2=O)c1` (stereo unspecified), the AC50 under setting [1] is 35.5 µM [rising, single point]. The same measure, in the same setting: for `CCOc1ccc(CN(C)C(=O)c2cc3ccccc3o2)cc1OC` the value was 0.316 µM [rising, full curve, poor fit]; for `Nc1ccc2c(c1)C(=O)N(CC1CCCO1)C2=O` (stereo unspecified), 0.13 µM [falling, full curve, poor fit]. The same measure, in the same setting: as for `Cc1ccc(SCC(=O)N2CCCC2)cc1`, the figure is 6.31 µM [rising, partial curve]; as for `Cc1ccc(S(=O)(=O)C(C#N)c2nc3ccccc3nc2N2CCCC2)cc1` (stereo unspecified), 5.8 µM [falling, full curve, poor fit]; as for `CCc1ccc(N=CC2=C(O)CC(c3ccco3)CC2=O)cc1` (stereo unspecified), 4.61 µM [rising, single point]. Still for that read-out and setting: as for `CC(=O)[C@H]1CC[C@H]2[C@@H]3C=CC4=CC(=O)CC[C@@]4(C)[C@@H]3CC[C@]12C`, the figure is 10.3 µM [rising, partial curve, poor fit]. For `COc1ccc(C(=O)C2CCCN(C(=O)c3cccnc3SC)C2)c(C)c1` (stereo unspecified), the AC50 under setting [1] is 0.794 µM [rising, full curve, poor fit].

As to `N/C(=N\OC(=O)Cc1ccccc1)c1ccc(Br)cc1`, under setting [1], the AC50 was 2.06 µM [rising, partial curve]. Still for that read-out and setting: for `Cc1ccc2nc(-c3ccccc3)cn2c1` the value was 7.08 µM [falling, partial curve]. Take `COC(=O)C1C(O)=C(C=Nc2cccc3ccccc23)C(=O)CC1(C)C` (stereo unspecified): the AC50 is 35.5 µM [falling, partial curve, poor fit] under setting [1] and 20 µM [falling, partial curve, poor fit] (measured here: IkBa-CBG green luminescence). For the compound `O=C(Nc1ccc(F)cc1)c1sc(Cl)nc1-c1ccccc1`, the AC50 under setting [1] was 23.1 µM [falling, partial curve, poor fit]. The same measure, in the same setting: as for `COc1ccc(C(=O)OCCc2ccc(O)cc2)cc1`, the figure is 23.1 µM [rising, partial curve, poor fit]; as for `CCCC(=O)N1CCN(c2nc3ccc(Cl)cc3s2)CC1`, 5.62 µM [rising, full curve, poor fit]. On the same count and under the same terms, as for `S=C1CCC(c2ccc(Cl)cc2)=NN1c1ccccc1`, the figure is 1.26 µM [rising, full curve]; as for `COc1ccc(OC)c(-n2c(C)ccc2-c2ccc(S(C)(=O)=O)cc2)c1`, 29.1 µM [rising, single point]; as for `O=C(N/N=C/c1c(O)n(Cc2ccco2)c(=O)[nH]c1=O)c1ccccc1`, 3.16 µM [falling, full curve]. On the same count and under the same terms, for `Cn1c(C(=O)OCC(=O)NCC2CCCO2)cc2sccc21` (stereo unspecified) the value was 23.1 µM [rising, partial curve, poor fit]. `Cc1[nH]c2ccccc2c1C(c1ccccn1)c1c(C)[nH]c2ccccc12`: the AC50 under setting [1] was 7.31 µM [falling, partial curve, poor fit]. On the same count and under the same terms, for `NC(=O)CC(NC(=O)Cc1ccc(Br)cc1)c1ccc(N2CCc3ccccc3C2)c([N+](=O)[O-])c1` (stereo unspecified) the value was 35.5 µM [falling, single point]; for `COCCn1c(SCC(=O)Nc2cccnc2Cl)nc2cc(Cl)ccc2c1=O`, 23.1 µM [rising, single point]. Same read-out and setting: for `CCOC(=O)Cn1cc(/C=C(\C#N)C(=O)N2CCOCC2)c2ccccc21` the value was 11.2 µM [rising, partial curve]; for `COc1ccccc1CC(NC(C)=O)C(=O)NC1CCN(C(=O)NCc2ccccc2)CC1` (stereo unspecified), 6.31 µM [rising, full curve, poor fit]. On the same count and under the same terms, for `O=C(COc1ccccc1)NC1CC(=O)N(c2ccc3c(c2)OCCO3)C1` (stereo unspecified) the value was 17.8 µM [falling, single point].

Take `Cc1[nH]c2ccc(C(=O)N3CCN(c4ccc(F)cc4)CC3)cc2c1C`: the AC50 under setting [1] is 6.31 µM [falling, partial curve, poor fit].

Consider `O=C(Nc1nc2ccc(Cl)cc2s1)c1cccc(N2C(=O)CCC2=O)c1`, for which the AC50 under setting [1] is 10.3 µM [falling, single point]. On the same count and under the same terms, as for `Cc1ccc(-c2ccc(NC(=O)C3C4C=CC(C4)C3C(=O)O)cc2)o1` (stereo unspecified), the figure is 20.6 µM [falling, partial curve, poor fit]; as for `CC(=O)N(CCCN(C)C)Cc1ccccn1`, 3.98 µM [rising, full curve]; as for `CCCCN(C(=O)c1ccc2c(c1)OCO2)c1c(N)n(CC(C)C)c(=O)[nH]c1=O`, 3.66 µM [rising, partial curve, poor fit].

With `O=C(CCc1ccccc1)Nc1ccc2ccccc2n1`, under setting [1], the AC50 is 1.41 µM [falling, full curve]. Still for that read-out and setting: for `O=C(CSc1nc(Cc2ccccc2)nc2ccccc12)Nc1ccc2c(c1)OCCO2` the value was 35.5 µM [falling, partial curve, poor fit].
